Some results were stated once for a whole list of compounds, not compound by compound.
Molecular target: truncated form of human NaV 1.8 with full channel activity (expressed in HEK cells) (Homo sapiens, UniProt Q9Y5Y9)
Test: E-VIPR assay detecting and measuring NaV inhibition properties (electrical stimulation, membrane potential FRET dyes)
Format: cell-based
Settings: HEK cells expressing truncated human NaV 1.8, KIR2.1 BacMam; 11-point dose response; 30 min compound incubation; stimulation 10 Hz for 10 s; read-out: measured IC50 value in the E-VIPR Assay

Chains of the proteins cited; added tags and fusions are not shown. Residues count along the entry.
UniProt Q9Y5Y9, 126-1722 limits assumed: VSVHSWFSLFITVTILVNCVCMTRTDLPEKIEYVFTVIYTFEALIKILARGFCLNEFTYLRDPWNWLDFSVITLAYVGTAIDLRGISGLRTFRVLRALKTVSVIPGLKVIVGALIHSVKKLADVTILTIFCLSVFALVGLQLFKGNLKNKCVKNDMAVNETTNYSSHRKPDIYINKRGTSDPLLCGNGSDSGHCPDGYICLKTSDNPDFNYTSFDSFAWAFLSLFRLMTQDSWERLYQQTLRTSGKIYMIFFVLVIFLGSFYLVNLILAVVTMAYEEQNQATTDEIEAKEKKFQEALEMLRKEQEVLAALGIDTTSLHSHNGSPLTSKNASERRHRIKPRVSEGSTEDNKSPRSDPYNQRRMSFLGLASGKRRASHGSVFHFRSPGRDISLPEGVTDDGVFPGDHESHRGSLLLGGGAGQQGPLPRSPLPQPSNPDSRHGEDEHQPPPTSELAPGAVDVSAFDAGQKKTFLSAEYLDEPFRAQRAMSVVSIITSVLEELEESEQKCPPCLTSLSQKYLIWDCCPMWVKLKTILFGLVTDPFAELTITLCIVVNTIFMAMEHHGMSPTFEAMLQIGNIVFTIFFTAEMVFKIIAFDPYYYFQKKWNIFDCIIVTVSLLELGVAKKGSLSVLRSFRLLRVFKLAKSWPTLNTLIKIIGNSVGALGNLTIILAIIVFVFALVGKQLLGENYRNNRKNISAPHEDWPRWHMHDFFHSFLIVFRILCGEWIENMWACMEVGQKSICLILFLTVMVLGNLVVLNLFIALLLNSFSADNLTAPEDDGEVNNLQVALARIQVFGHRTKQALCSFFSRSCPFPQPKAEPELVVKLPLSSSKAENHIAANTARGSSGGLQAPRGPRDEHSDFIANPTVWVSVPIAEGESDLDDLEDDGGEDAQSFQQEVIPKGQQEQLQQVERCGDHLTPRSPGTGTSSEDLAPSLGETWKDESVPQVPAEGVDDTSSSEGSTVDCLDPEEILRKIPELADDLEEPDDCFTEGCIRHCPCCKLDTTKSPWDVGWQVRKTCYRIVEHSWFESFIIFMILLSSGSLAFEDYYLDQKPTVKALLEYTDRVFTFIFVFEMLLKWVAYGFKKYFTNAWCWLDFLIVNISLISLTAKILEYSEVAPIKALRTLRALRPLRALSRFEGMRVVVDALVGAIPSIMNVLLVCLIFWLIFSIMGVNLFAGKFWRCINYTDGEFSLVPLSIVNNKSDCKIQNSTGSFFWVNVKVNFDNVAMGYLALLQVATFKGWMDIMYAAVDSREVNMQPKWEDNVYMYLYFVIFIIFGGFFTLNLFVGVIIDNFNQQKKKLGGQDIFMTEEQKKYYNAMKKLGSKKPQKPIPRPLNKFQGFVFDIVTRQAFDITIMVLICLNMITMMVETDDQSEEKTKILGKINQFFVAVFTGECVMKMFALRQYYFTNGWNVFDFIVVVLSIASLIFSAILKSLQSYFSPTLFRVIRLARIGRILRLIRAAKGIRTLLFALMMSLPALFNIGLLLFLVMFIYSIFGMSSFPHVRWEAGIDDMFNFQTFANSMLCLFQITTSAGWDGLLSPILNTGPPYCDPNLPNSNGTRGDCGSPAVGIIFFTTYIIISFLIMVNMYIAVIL

| Compound | IC50 [nM] |
| --- | --- |
| Cc1c(Oc2ncc(C(F)(F)F)c(C)c2-c2cc(=O)c3c(N4CCCC4=O)cccc3[nH]2)ccc(F)c1F [Compound 208, 2-[2-(3,4-difluoro-2-methyl-phenoxy)-4-methyl-5-(trifluoromethyl)-3-pyridyl]-5-(2-oxopyrrolidin-1-yl)-1H-quinolin-4-one] | < 500 |
| COc1c(-c2cc3ccccc3nc2N2CCCC(F)(F)CC2)[nH]c2ccncc2c1=O [Compound 326, 2-[2-(4,4-difluoroazepan-1-yl)-3-quinolyl]-3-methoxy-1H-1,6-naphthyridin-4-one] | < 500 |
| Cc1c(Oc2ncc(C(F)(F)F)c(C)c2-c2cc(=O)c3c(C(=O)N[C@H](C)c4ccccc4O)nccc3[nH]2)ccc(F)c1F [Compound 263, 2-[2-(3,4-difluoro-2-methyl-phenoxy)-4-methyl-5-(trifluoromethyl)-3-pyridyl]-N-[(1R)-1-(2-hydroxyphenyl)ethyl]-4-oxo-1H-1,6-naphthyridine-5-carboxamide] | < 500 |
| Cc1c(Oc2ncc(C(F)(F)F)c(C)c2-c2cc(=O)c3c(N(C)C)cccc3[nH]2)ccc(F)c1F [Compound 200, 2-[2-(3,4-difluoro-2-methyl-phenoxy)-4-methyl-5-(trifluoromethyl)-3-pyridyl]-5-(dimethylamino)-1H-quinolin-4-one] | < 500 |
| Cc1c(Oc2nc3ccccc3cc2-c2[nH]c3cc(F)ccc3c(=O)c2C)ccc(F)c1F [Compound 24, 2-[2-(3,4-difluoro-2-methyl-phenoxy)-3-quinolyl]-7-fluoro-3-methyl-1H-quinolin-4-one] | < 500 |
| Cc1c(C(C)(C)C)nn(C2CCC(F)(F)CC2)c1-c1cc(=O)c2c(C(N)=O)nccc2[nH]1 [Compound 349, 2-[5-tert-butyl-2-(4,4-difluorocyclohexyl)-4-methyl-pyrazol-3-yl]-4-oxo-1H-1,6-naphthyridine-5-carboxamide] | < 500 |
| CC(C)(C)c1nn(C2CCC(F)(F)CC2)c(-c2cc(=O)c3c(C(N)=O)nccc3[nH]2)c1Cl [Compound 373, 2-[5-tert-butyl-4-chloro-2-(4,4-difluorocyclohexyl)pyrazol-3-yl]-4-oxo-1H-1,6-naphthyridine-5-carboxamide] | < 500 |
| CCOC(=O)c1c(-c2cc3ccccc3nc2N2CCCC(F)(F)CC2)[nH]c2cccnc2c1=O [Compound 63, ethyl 2-[2-(4,4-difluoroazepan-1-yl)-3-quinolyl]-4-oxo-1H-1,5-naphthyridine-3-carboxylate] | < 500 |
| Cc1c(Oc2ncc(C(F)(F)F)c(C)c2-c2cc(=O)c3c(N4CCCN(C)CC4)nccc3[nH]2)ccc(F)c1F [Compound 186, 2-[2-(3,4-difluoro-2-methyl-phenoxy)-4-methyl-5-(trifluoromethyl)-3-pyridyl]-5-(4-methyl-1,4-diazepan-1-yl)-1H-1,6-naphthyridin-4-one] | < 500 |
| Cc1ccc2[nH]c(-c3cc4ccccc4nc3Oc3ccc(F)c(F)c3C)cc(=O)c2c1 [Compound 12, 2-[2-(3,4-difluoro-2-methyl-phenoxy)-3-quinolyl]-6-methyl-1H-quinolin-4-one] | < 500 |
| COc1c(Oc2cc(C(F)(F)F)c(F)cc2-c2cc(=O)c3cnc(C)cc3[nH]2)ccc(F)c1F [Compound 161, 2-[2-(3,4-difluoro-2-methoxy-phenoxy)-5-fluoro-4-(trifluoromethyl)phenyl]-7-methyl-1H-1,6-naphthyridin-4-one] | < 500 |
| Cc1cc(F)ccc1-n1nc(C(C)(C)C)cc1-c1cc(=O)c2c(C(N)=O)nccc2[nH]1 [Compound 376, 2-[5-tert-butyl-2-(4-fluoro-2-methyl-phenyl)pyrazol-3-yl]-4-oxo-1H-1,6-naphthyridine-5-carboxamide] | < 500 |
| Cc1c(Oc2ncc(C(F)(F)F)c(C)c2-c2cc(=O)c3c(C(=O)N[C@H]4c5ccccc5C[C@H]4O)nccc3[nH]2)ccc(F)c1F [Compound 264, 2-[2-(3,4-difluoro-2-methyl-phenoxy)-4-methyl-5-(trifluoromethyl)-3-pyridyl]-N-[(1S,2R)-2-hydroxyindan-1-yl]-4-oxo-1H-1,6-naphthyridine-5-carboxamide] | < 500 |
| COc1cc(F)ccc1Oc1cc(C(C)(C)C)cc(C)c1-c1[nH]c2ccccc2c(=O)c1Br [Compound 318, 3-bromo-2-[4-tert-butyl-2-(4-fluoro-2-methoxy-phenoxy)-6-methyl-phenyl]-1H-quinolin-4-one] | < 500 |
| Cc1cc(-c2cc(=O)c3c(C(N)=O)nccc3[nH]2)c(N2CCC(F)(F)CC2)nc1C(F)(F)F [Compound 82, 2-[2-(4,4-difluoro-1-piperidyl)-5-methyl-6-(trifluoromethyl)-3-pyridyl]-4-oxo-1H-1,6-naphthyridine-5-carboxamide] | < 500 |
| CNc1nccc2[nH]c(-c3c(Oc4ccc(F)c(F)c4C)ncc(C(F)(F)F)c3C)cc(=O)c12 [Compound 167, 2-[2-(3,4-difluoro-2-methyl-phenoxy)-4-methyl-5-(trifluoromethyl)-3-pyridyl]-5-(methylamino)-1H-1,6-naphthyridin-4-one] | < 500 |
| Cc1c(Oc2ncc(C(F)(F)F)c(C)c2-c2cc(=O)c3c(C(=O)N[C@H](CO)Cc4ccccc4)nccc3[nH]2)ccc(F)c1F [Compound 262, N-[(1S)-1-benzyl-2-hydroxy-ethyl]-2-[2-(3,4-difluoro-2-methyl-phenoxy)-4-methyl-5-(trifluoromethyl)-3-pyridyl]-4-oxo-1H-1,6-naphthyridine-5-carboxamide] | < 500 |
| COc1cc(F)ccc1Oc1cc(C(C)(C)C)cc(C)c1-c1cc(=O)c2cccnc2[nH]1 [Compound 30, 2-[4-tert-butyl-2-(4-fluoro-2-methoxy-phenoxy)-6-methyl-phenyl]-1H-1,8-naphthyridin-4-one] | < 500 |
| COc1c(-c2cc(C(F)(F)F)c(C)nc2N2CCCC(F)(F)CC2)[nH]c2ccnc(C(N)=O)c2c1=O [Compound 325, 2-[2-(4,4-difluoroazepan-1-yl)-6-methyl-5-(trifluoromethyl)-3-pyridyl]-3-methoxy-4-oxo-1H-1,6-naphthyridine-5-carboxamide] | < 500 |
| Cc1nc(C2CCC(F)(F)CC2)c(-c2cc(=O)c3c(C(N)=O)nccc3[nH]2)cc1C(F)(F)F [Compound 116, 2-[2-(4,4-difluorocyclohexyl)-6-methyl-5-(trifluoromethyl)-3-pyridyl]-4-oxo-1H-1,6-naphthyridine-5-carboxamide] | < 500 |
| Cc1c(Oc2ncc(C(F)(F)F)c(C)c2-c2cc(=O)c3c(C(=O)NC4CC(O)C4)nccc3[nH]2)ccc(F)c1F (centres unmarked) [Compound 272, 2-[2-(3,4-difluoro-2-methyl-phenoxy)-4-methyl-5-(trifluoromethyl)-3-pyridyl]-N-(3-hydroxycyclobutyl)-4-oxo-1H-1,6-naphthyridine-5-carboxamide] | < 500 |
| Cc1c(Oc2ncc(C(F)(F)F)c(C)c2-c2cc(=O)c3c(-c4ncco4)nccc3[nH]2)ccc(F)c1F [Compound 238, 2-[2-(3,4-difluoro-2-methyl-phenoxy)-4-methyl-5-(trifluoromethyl)-3-pyridyl]-5-oxazol-2-yl-1H-1,6-naphthyridin-4-one] | < 500 |
| CC1(c2cc(-c3cc(=O)c4c(C(N)=O)nccc4[nH]3)n(C3CCC(F)(F)CC3)n2)CCC1 [Compound 359, 2-[2-(4,4-difluorocyclohexyl)-5-(1-methylcyclobutyl)pyrazol-3-yl]-4-oxo-1H-1,6-naphthyridine-5-carboxamide] | < 500 |

From patent US12503439B2, “Heteroaryl compounds for the treatment of pain” (VERTEX PHARMACEUTICALS INCORPORATED, priority 2022, dated 2025)
